Values quoted from earlier work in US20200147038A1, “ASSESSING AND TREATING PSYCHEDELIC-[…]” (Eleusis Benefit Corporation, PBC, priority 2017, published 2020).
Where two headings read alike, the source gives them in different places. At least one compound was matched to its structure with a doubt left.

Settings: cited from earlier work

## CN(C)CCc1c[nH]c2cccc(OP(=O)(O)O)c12 [psilocybin]
Griffiths et al. 2006, 2011
  Rates of MEs found during psilocybin sessions: 60-72%
Pahnke 1963
  Rates of MEs found during psilocybin sessions: 30-40%
